The record followed here is patent publication US20250250355A1.

The chains behind the UniProt entries cited, without tags or fusion partners. Where a name states a change or a piece, a line headed by the entry shows the natural chain unless it says otherwise. Residues count along the entry.
UniProt Q9P1W8, residues 29-387: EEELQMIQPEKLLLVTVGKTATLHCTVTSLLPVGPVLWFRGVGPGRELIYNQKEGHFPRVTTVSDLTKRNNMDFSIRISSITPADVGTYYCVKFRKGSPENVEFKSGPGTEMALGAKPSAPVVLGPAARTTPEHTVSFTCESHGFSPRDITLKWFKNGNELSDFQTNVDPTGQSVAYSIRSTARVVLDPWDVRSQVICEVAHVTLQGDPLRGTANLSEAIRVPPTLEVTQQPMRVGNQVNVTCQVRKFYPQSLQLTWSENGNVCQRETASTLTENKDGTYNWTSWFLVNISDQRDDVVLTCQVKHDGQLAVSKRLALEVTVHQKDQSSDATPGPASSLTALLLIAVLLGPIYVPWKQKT
UniProt P78324: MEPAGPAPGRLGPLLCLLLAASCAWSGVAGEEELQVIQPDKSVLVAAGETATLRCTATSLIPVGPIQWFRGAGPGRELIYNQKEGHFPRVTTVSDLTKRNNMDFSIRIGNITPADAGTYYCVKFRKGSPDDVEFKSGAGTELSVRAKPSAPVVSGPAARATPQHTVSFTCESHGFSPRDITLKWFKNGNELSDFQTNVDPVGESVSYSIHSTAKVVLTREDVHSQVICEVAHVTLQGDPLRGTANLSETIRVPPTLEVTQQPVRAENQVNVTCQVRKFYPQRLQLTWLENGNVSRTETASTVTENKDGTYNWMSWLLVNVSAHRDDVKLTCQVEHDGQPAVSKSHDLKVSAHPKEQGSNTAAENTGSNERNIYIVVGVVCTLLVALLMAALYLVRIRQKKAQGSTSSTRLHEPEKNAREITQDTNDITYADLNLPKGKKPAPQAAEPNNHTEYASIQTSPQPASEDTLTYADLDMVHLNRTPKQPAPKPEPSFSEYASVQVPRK

The target in experiment [1] is full length human SIRPγ endogenously expressed on Jurkat cells (human) (UniProt Q9P1W8). In words: cell based binding FACS on Jurkat cells (endogenous human SIRPγ), MFI.
The target is the same in experiment [2]. In words: cell based binding FACS on Jurkat cells (FIG. 6).
In experiment [3] the target is human SIRPα-V8-his protein (human) (UniProt P78324). The experiment can be described thus: indirect ELISA on coated human SIRPα-V8-his, OD(450-630). Background: ELISA stands for enzyme-linked immunosorbent assay.
Experiment [4] deals with human SIRPα-isoform 2-his protein (human). In words: indirect ELISA on coated human SIRPα-isoform 2-his, OD(450-630).

Substitutions are numbered along the chain they refer to. No constants are given. Whether binding was seen depends on the method and setting.

B1: E1D5E1F1 (antibody, V domains shown)
VH: QVQLVQSGAEVKKPGASVKVSCKASGYTFTSFAMQWVRRAPGQRLEWMGWIIAGNGDTKYSQNFQDRVTLTRDTSANTAYMDLSGLRSEDTAVYYCARGSGFSGYGYFDKWGQGTLVTVSS
VL: DIQMTQSPSSLSASVGDRVTITCRASHSISSYLNWYQQKPGKVPKLLIYASSSLQSGVPSRFSGNGSGTDFTLIISSLQPEDFATYYCQQSHSIPLTFGGGTKVEIK
For the molecule B1, the binding entry in experiment [1] was “no binding (tested: ~67 nM)”; in experiment [2] it was “no binding (tested: starting from 10 µg/mL)”.

B2: E1H10B7C7 (antibody, V domains shown)
VH: B1 VH with F32Y, R39Q
VL: B1 VL
Turning to B2, in experiment [2], the binding entry is on record as “no binding (tested: starting from 10 µg/mL)”.

B3: BI-765063 (antibody, human IgG4 S228P, kappa, V domains shown)
VH: EVQLVQSGAEVKKPGESLRISCKASGYSFTSYWVHWVRQMPGKGLEWMGNIDPSDSDTHYSPSFQGHVTLSVDKSISTAYLQLSSLKASDTAMYYCVRGGTGTLAYFAYWGQGTLVTVSS
VL: DVVMTQSPLSLPVTLGQPASISCRSSQSLVHSYGNTYLYWFQQRPGQSPRLLIYRVSNRFSGVPDRFSGSGSGTDFTLKISRVEAEDVGVYYCFQGTHVPYTFGGGTKVEIKR
For the molecule B3, the binding entry in experiment [3] and in experiment [4] was “no binding (tested: ~67 nM)” in each case.

B4: E1F1B1C3 (antibody, V domains shown)
VH: QVQLVQSGAEVKKPGASVKVSCKASGYTFTSNAMHWVRQVPGQGLEWMGWIKAGNGEIKYSQKFQGRVTITRDTSATTAYMELSSLRSEDTAVYYCARGDYYYYYMDVWGKGTTVTVSS
VL: DIQVTQSPSSLSASVGDRVTITCRASQSISDFLNWYQQKPGKAPKLLIHAASSLQNGVPSRFSGSGSGTDFSLTINSLQPEDFATYYCQQSYSTPLSFGGGTKVEIK
Turning to B4, the binding result was “no binding (tested: ~67 nM)” in experiment [1] and “no binding (tested: starting from 10 µg/mL)” in experiment [2].
